# Experimental data from the supplement of paper PMC10338343.
# ± gives the standard deviation. This is a selection; strong and weak results do not stand in their true shares. The uncertainty is large for many entries.
# Legend:
# [1] = system: MIWI (PIWIL1) piRISC loaded with piRNA #1 (30 nt); assay: pre-steady-state target cleavage rate (min^-1); higher = faster piRNA-guided slicing of the target; conditions: guide: piRNA #1 5'p-UGAGGUAGUAGGUUGUAUAGUAUCCAGAGG; auxiliary factor: 500 nM mouse GTSF1;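 note: 1 nM active piRISC with 0.1 nM target library at 33 °C single turnover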
# How it was run: (§1)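 For Cleave-'n-Seq, a transcribed, DNA-blocked target RNA library […] met 1 nM active affinity-purified piRISC with one synthetic guide at 33 °C for 0–8 or 0–960 min in HEPES–potassium acetate buffer, with or without 500 nM GTSF1 partner protein. Uncleaved targets were sequenced and normalised to depth and weakly complementary targets, with three trials pooled and k3 capped at 0.0001 min^-1. A burst-and-steady-state fit supplied the pre-steady-state cleavage rate.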
# [2] = system: EfPiwi piRISC loaded with piRNA #1 (26 nt); assay: pre-steady-state target cleavage rate (min^-1); guide: piRNA #1 5'p-UGAGGUAGUAGGUUGUAUAGUAUCCA; MIWI and MILI are mouse PIWI proteins and EfPiwi is from a freshwater sponge; tags in brackets are library labels; higher = faster piRNA-guided slicing of the target; conditions: auxiliary factor: 500 nM Ephydatia muelleri Gtsf1
# How it was run: as §1
Sequence,pre-steady-state target cleavage rate [1],pre-steady-state target cleavage rate [2]
GGAGACCUAUGAUAUGUUGGUACUUGGUCA,0.00014 ± 0.022,0.000543 ± 0.0071
GGAGACCUAUGAAAACAAGCUACUACCUCA,0.00104 ± 0.005,0.00109 ± 0.01
GGAGACCAUACUAUACAACCUACUACCAUCA,1.35 ± 0.087,0.0041 ± 0.0029
GGAGACCUAUGAUAUCAUGCUACUACCUCA,0.000401 ± 0.0093,0.000434 ± 0.0041
GGAGACCUAUGUAUACAACCUAGUUCCUCA,0.00129 ± 0.003,0.00154 ± 0.0069
GGAGAGGAUACUAUACAACCGUACUACCUCA,0.00128 ± 0.0062,0.00659 ± 0.0028
GGAGACCUAUGUAUACUACCUACUUCCUCA,0.000903 ± 0.0055,0.000297 ± 0.011
GGAGACCUAUGAAUACAACAUACUACCUCA,0.000364 ± 0.0045,0.00112 ± 0.0073
GGAGACCUAUGUAUACAACCAUACUACCUCA,0.00102 ± 0.0077,0.00131 ± 0.009
GGAGACCUAACUAUACAACAUACUACCUCA,0.303 ± 0.036,0.00659 ± 0.0046
GGAGACCUAUGAUUACAACCUACUAGCUCA,0.000326 ± 0.0066,0.00166 ± 0.0049
GGAGACCUAUCUUUACUACCUACUACCUCA,0.00251 ± 0.003,0.00221 ± 0.0044
GGAGACCUAUGUAAACAACCUACUUCCUCA,0.000892 ± 0.0053,0.000239 ± 0.01
GGAGACCUAUGAUAUGUUGCUACUAGCACA,0.00101 ± 0.008,0.000998 ± 0.0062
GGAGACCUAACAAUACAACCUACAACCUCA,0.00188 ± 0.0075,0.00197 ± 0.0058
GGAGACCUAUGAUAUGUUGCUACUACCGCA,0.000968 ± 0.0073,0.000258 ± 0.01
GGAGACCUAUGAAUACCACCUACUACCUCA,0.00037 ± 0.0083,0.000325 ± 0.02
GGAGACCUAUGAUAACAACCUACUACGCUCA,0.00157 ± 0.0033,< 0.0001
GGAGACCUAUGUAUAGAACGUACUACCUCA,0.000547 ± 0.0029,0.000255 ± 0.01
GGAGACCUAUGAUAACAAGCUACUACCACA,0.000834 ± 0.0062,0.000184 ± 0.015

Sequence,pre-steady-state target cleavage rate [1],pre-steady-state target cleavage rate [2]
GGAGACCUAUGAUAUGUUCCUACUACCUUCA,0.000152 ± 0.016,0.00017 ± 0.0094
GGAGACCUAUGAUCACAACCUACUACCUCA,0.00149 ± 0.0058,0.00429 ± 0.0038
GGAGACCUAUGAUUACAUCCUACAACCUCA,0.00088 ± 0.0049,0.000233 ± 0.012
GGAGACCUAUGAAUACAACCUACUACCUACA,0.00143 ± 0.0035,0.000306 ± 0.021
GGAGACCUAUGAUAUGUUGCUACUACCUCU [g2:g11:cont:t1U],0.000156 ± 0.014,0.000302 ± 0.009
GGAGACCUAUGAUAUGUUGGUUCUUCCUCA,0.000291 ± 0.013,0.000934 ± 0.0063
GGAGACCUAUGAAAACAACCUACUUCCUCA,0.000924 ± 0.0043,0.00053 ± 0.0063
GGAGAGGGUACUAUACAACCUACUACCUCA,1.17 ± 0.051,0.0162 ± 0.0072
GGAGACCUAUGAUAACAAGCUACUACCUCA,0.00122 ± 0.004,0.000663 ± 0.0074
GGAGACCUAUGAUAUGUUGCUACUACUUCA,0.00178 ± 0.0047,0.000703 ± 0.0056
GGAGACCUAUGAUUACAACGUACUUCCUCA,0.000818 ± 0.0074,0.000508 ± 0.0071
GGAGACCUAUGAAUACAACCUACGACCUCA,0.00105 ± 0.0039,0.000883 ± 0.01
GGAGACCUAUGAUUACAACCUACUUCCUCA,0.000297 ± 0.0058,0.00182 ± 0.0048
GGAGACCUAUCAAUACAACGUACUACCUCA,0.00242 ± 0.0031,0.00144 ± 0.004
GGAGACGAUACUUUACAACCUACUAGCUCA,0.142 ± 0.027,0.00154 ± 0.0021
GGAGACCUAUGUAUUCAAGCUACUACCUCA,0.00239 ± 0.0024,0.00122 ± 0.0053
GGAGACCUAUGUAUUCAACCUACUAGCUCA,0.000232 ± 0.013,0.000226 ± 0.012
GGAGACCUUACUAUACAACCUACUAGGUCA,0.00366 ± 0.0037,0.00329 ± 0.0035
GGAGACCUAUGAUUACUACCUACAACCUCA,0.000145 ± 0.012,0.000183 ± 0.012
GGAGACCUAUGAAUACAAGCUACUACGUCA,0.000458 ± 0.0068,0.000606 ± 0.013

# Reprinted from the entries so far for reference:
Sequence,pre-steady-state target cleavage rate [1],pre-steady-state target cleavage rate [2]
GGAGACCUAUGAUAUGUUGGUUCUUCCUCA,0.000291 ± 0.013,0.000934 ± 0.0063
GGAGACCUAUGAAAACAACCUACUUCCUCA,0.000924 ± 0.0043,0.00053 ± 0.0063
GGAGAGGGUACUAUACAACCUACUACCUCA,1.17 ± 0.051,0.0162 ± 0.0072
GGAGACCUAUGAUAACAAGCUACUACCUCA,0.00122 ± 0.004,0.000663 ± 0.0074
GGAGACCUAUGAUAUGUUGCUACUACUUCA,0.00178 ± 0.0047,0.000703 ± 0.0056
GGAGACCUAUGAUUACAACGUACUUCCUCA,0.000818 ± 0.0074,0.000508 ± 0.0071
GGAGACCUAUGAAUACAACCUACGACCUCA,0.00105 ± 0.0039,0.000883 ± 0.01
GGAGACCUAUGAUUACAACCUACUUCCUCA,0.000297 ± 0.0058,0.00182 ± 0.0048
GGAGACCUAUCAAUACAACGUACUACCUCA,0.00242 ± 0.0031,0.00144 ± 0.004
GGAGACGAUACUUUACAACCUACUAGCUCA,0.142 ± 0.027,0.00154 ± 0.0021
GGAGACCUAUGUAUUCAAGCUACUACCUCA,0.00239 ± 0.0024,0.00122 ± 0.0053
GGAGACCUAUGUAUUCAACCUACUAGCUCA,0.000232 ± 0.013,0.000226 ± 0.012
GGAGACCUUACUAUACAACCUACUAGGUCA,0.00366 ± 0.0037,0.00329 ± 0.0035
GGAGACCUAUGAUUACUACCUACAACCUCA,0.000145 ± 0.012,0.000183 ± 0.012

# Following part:

Sequence,pre-steady-state target cleavage rate [1],pre-steady-state target cleavage rate [2]
GGAGACCUAUGUAUACAACCAACUACCUCA,0.00174 ± 0.0024,0.000861 ± 0.007
GGAGACCUAAAUAUACAACCUACUACCUCA,0.106 ± 0.021,0.0102 ± 0.0046
GGAGACCUAUCUAAACAACCUACUACCUGA,0.0035 ± 0.0036,0.00128 ± 0.0063
GGAGGGGAUACUAUACAACCUACUACCUCA,1.51 ± 0.069,0.209 ± 0.067
GGAGACCUAUGAUUUACAACCUACUACCUCA,0.00209 ± 0.0041,0.00279 ± 0.005
GGAGACCUAUGAAUACAACCUACUGACCUCA,0.00187 ± 0.0038,0.00017 ± 0.033
GGAGACCUAUGUAUACUACGUACUACCUCA,0.00129 ± 0.006,0.000428 ± 0.0049
GGAGACCUAUGUAUACAACCUACUACCUGCA,0.0855 ± 0.011,0.000926 ± 0.0076
GGAGACCUAUGUAAACAACCUACUACCUGA,0.000997 ± 0.0061,0.00109 ± 0.0076
GGAGACCUAUGAUAUGUAACCUACUACCUCA,0.00185 ± 0.0025,0.000676 ± 0.0085
GGAGACCUAUGAUAUCAAGCUACUACCUCA,0.000221 ± 0.011,0.000346 ± 0.0053
GGAGACCUAUGAAUACAUCCUACUACCUCA,0.00119 ± 0.0041,0.00148 ± 0.0042
GGAGACCUAUGAUAACAACGUACUACCUCA,0.000662 ± 0.0038,0.000906 ± 0.007
GGAGACCUAUGAUAUGUUGCUACUACCUCC [g2:g11:cont:t1C],0.000197 ± 0.015,0.000454 ± 0.01
GGAGACCUAUGAAUACAACCUACUACCUCA [g2:g18:cont:t1A],0.00233 ± 0.0046,0.00706 ± 0.0032
GGAGACCUAUGAAUACAACCUUCUACCUCA,0.00145 ± 0.0028,0.000979 ± 0.0062
GGAGACCUAUCAAUACAACCUACAACCUCA,0.00209 ± 0.0042,0.00145 ± 0.0062
GGAGACCUAUGAAUACAACGUACUUCCUCA,0.000225 ± 0.01,0.00033 ± 0.0071
GGAGUGGAUACUAUACAACACUACUACCUCA,0.000749 ± 0.0084,0.00629 ± 0.003
GGAGACCUAACUAUACAAGCAACUACCUCA,0.00333 ± 0.0038,0.000483 ± 0.0066
